# Measurements: PubChem BioAssay AID2685 (National Center for Advancing Translational Sciences (NCATS), 2010)
# Among all 320,000 compounds or so, about 2,100 (0.66%) were called active. The call rests on the fitted dose curve; in most records, active means well fitted inhibition curve with a large enough effect in the signal ratio, with a control signal flat (not every such curve was filed as active); inconclusive means small, poorly fitted or top-dose-only effect, or effect the other way, or a change in a side signal; inactive means flat fitted curve, though single readings scatter; the % refers to the signal ratio. The inconclusive results got no clear call from the source. A potency beside an inconclusive call is a rough fit, not a confirmed value.
# Assay: qHTS Assay for Lipid Storage Modulators in Drosophila S3 Cells
# Settings: BODIPY lipid droplet fluorescence, 18-24 h, cells fed with added oleic acid; series mostly up to 46.1 µM
# Method in brief: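 Drosophila S3 cells got compounds at several concentrations plus oleic acid (400 uM solution). Laser-scanning cytometry with 488 nm excitation read lipid droplets at 500-530 nm and cells at 575-640 nm. Percent activity was relative to 20 uM Triacsin C.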
# Potency means the concentration at half of the fitted maximal effect.
row,SMILES,Potency
1,O=C(COc1ccc(Cl)cc1)Nc1cc(NC(=O)COc2ccc(Cl)cc2)cc(C(=O)O)c1,"inconclusive: 18.4 µM [activator, partial curve]"
2,COc1cc(NS(=O)(=O)c2ccc(NC(=S)NC(=O)c3sc4ccccc4c3Cl)cc2)nc(OC)n1,"inconclusive: 29.1 µM [falling, single point]"
